Some of the results follow. Shown are side measurements of this screen, not its main read-out; they come without a call. The list favours compounds with an active or inconclusive main result.
Assay: blockers of oleate-driven lipid droplets in liver cells – imaging, AML12 mouse hepatocytes, single concentration, high-content, confirmation (AID 463183);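 further: cells counted after overnight compound exposure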
Conditions: BODIPY lipid droplet imaging, measured here: cell count, cytotoxicity, at 5.2 µM, droplets induced with 100 µM oleic acid

| Compound | cell count [cells] |
| --- | --- |
| CCOc1ccc(CCNC(=O)Cn2ncn3nc(-c4ccc(OC)cc4)cc3c2=O)cc1OCC | 1530 |
| Cc1cc(C=O)c(O)cc1O | 1590 |
| COc1ccc(C)cc1S(=O)(=O)N(CC(=O)O)c1ccc(C)cc1 | 1560 |
| Cc1cc(=O)oc2cc(OCC(=O)NC3CCN(Cc4ccccc4)CC3)c(Cl)cc12 | 1610 |
| C/C(=N\N=C(/N)c1nonc1N)c1ccc2c(c1)OCO2 | 1580 |
| COc1ccc(N=C2C(=Nc3ccc(OC)cc3)N(c3ccc(OC)cc3)C(=S)N2C(=O)c2ccc(OC)cc2)cc1 | 1580 |
| CCCCN(CCCNC(=O)CN1C(=O)COc2ccccc21)c1ccccc1 | 1580 |
| O=C1C(NS(=O)(=O)c2cccs2)=C(N2CCN(c3cccc(C(F)(F)F)c3)CC2)C(=O)c2ccccc21 | 1600 |
| Cc1ccc2nc(Nc3ccc(F)cc3)c3nncn3c2c1 | 1590 |
| C/C(=N\Nc1ccc(S(=O)(=O)Nc2ccccc2)cc1[N+](=O)[O-])c1ccc(N2CCOCC2)cc1 | 1690 |
| Cc1ccc(-n2nc3c(=O)n(CC(=O)NCCCc4ccccc4)nc(C)c3c2C)cc1 | 1500 |
| Cc1cc(C)nc(NCCO)n1 | 1630 |
| CCOc1ccc(CCNC(=O)COC(=O)c2c(C)nn(-c3ccccc3)c2C)cc1OCC | 1630 |
| Cc1ccc(-n2nc3c(=O)n(C(C)C(=O)NCCC4=CCCCC4)nc(C)c3c2C)cc1 (centres undefined) | 1650 |
| COc1ccc(CNC(=O)N2CCN(S(=O)(=O)c3ccc(C)cc3C)CC2)cc1 | 1600 |
| Cc1ccc(-c2c(C)nn3c(N4CCOCC4)cc(C)nc23)cc1 | 1660 |
| Oc1[nH]c2ccccc2c1N=Nc1nc(Nc2ccccc2)nc(N2CCOCC2)n1 | 610 |
| Cc1[nH]c2ccccc2c1/C=N/Nc1ccccc1[N+](=O)[O-] | 1640 |
| O=C(Nc1cccc(Cn2cccn2)c1)c1cc2c(s1)CCCC2 | 1560 |
| CN(C)c1nc(N/N=C/c2c[nH]c3ccccc23)nc(N2CCOCC2)n1 | 547 |

| Compound | cell count [cells] |
| --- | --- |
| COC(=O)c1cn(NC(=O)c2ccc([N+](=O)[O-])cc2Cl)c(=O)c2ccccc12 | 1670 |
| CCCNS(=O)(=O)c1ccc(CCC(=O)Nc2cc(Cl)ccc2Oc2ccccc2)cc1 | 1650 |
| O=C1C(NS(=O)(=O)c2ccccc2)=C(N2CCN(c3ccc(F)cc3)CC2)C(=O)c2ccccc21 | 1630 |
| COc1cc2c(cc1NC(=S)NC(=O)c1c(OC)cccc1OC)oc1ccccc12 | 1570 |
| COc1cccc(-c2cn(-c3cccc(C(F)(F)F)c3)c(=S)[nH]2)c1 | 1630 |
| CCOc1ccc(CCNC(=O)CN2CCN(Cc3ccc(F)cc3)C2=O)cc1OCC | 1580 |
| COc1ccc(OC)c(CCNC(=O)C(C)n2nc(C)c3c(C)n(-c4ccc(C)cc4)nc3c2=O)c1 (centres undefined) | 1550 |
| CN1C(=O)[C@H]2[C@@H](C3CC3)N3C(=O)CN(Cc4ccccn4)C(=O)[C@@]3(Cc3ccccc3)[C@H]2C1=O | 1540 |
| COc1ccccc1N1CCN(C(=O)CSc2nc3ccccc3nc2N2CCC(C)CC2)CC1 | 1630 |
| CC(=O)Nc1ccc(-c2csc(NC(=O)Cc3ccccc3F)n2)cc1 | 1670 |
| COc1ccc(CCNC(=O)CCOc2cc(C)ccc2C)cc1OC | 1570 |
| CC1=C(C(=O)OCC2CCCO2)C(c2ccc(Cl)c(Cl)c2)NC(=O)N1 (centres undefined) | 1580 |
| CC(C)Oc1ccc(C(=O)Nc2ccc(N3CCN(C(=O)c4ccco4)CC3)cc2)cc1 | 1680 |
| Cc1cc(C)cc(N(CC(=O)O)S(=O)(=O)c2c(C)noc2C)c1 | 1630 |
| COc1ccc(C2CC(c3cccs3)=NN2C(=O)c2ccc(Br)o2)cc1 (centres undefined) | 1530 |
| CCOc1ccc(CCNC(=O)C2CC=CCC2C(=O)OC(C)C)cc1OCC (centres undefined) | 1440 |
| CCOc1ccc2c(c1)-c1c(ssc1=S)C(C)(C)N2C(=O)c1ccco1 | 1630 |
| COc1nccnc1NS(=O)(=O)c1ccc(NCc2cc(Br)ccc2O)cc1 | 1610 |
| CCCN1C(=O)/C(=C2/C=Cc3ccccc3N2CC)SC1=S | 1690 |

Entries listed so far that contain a CF3 group (2):

| Compound | cell count [cells] |
| --- | --- |
| O=C1C(NS(=O)(=O)c2cccs2)=C(N2CCN(c3cccc(C(F)(F)F)c3)CC2)C(=O)c2ccccc21 | 1600 |
| COc1cccc(-c2cn(-c3cccc(C(F)(F)F)c3)c(=S)[nH]2)c1 | 1630 |
